Here are results for 59 molecules from PubChem BioAssay AID2685 (National Center for Advancing Translational Sciences (NCATS), 2010).

Molecules are shown by their SMILES. The list shows a part of the results. Shown are side measurements of this screen, not its main read-out; they come without a call. The list favours compounds with an active or inconclusive main result. Words in brackets tell the shape of the fitted curve; partial curves, single points and poor fits give uncertain potencies.

The assay is described as follows: qHTS Assay for Lipid Storage Modulators in Drosophila S3 Cells.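 As to cell number change: cells counted by Cell Tracker Red CMTPX staining in the red channel.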 Conditions: BODIPY lipid droplet fluorescence, 18-24 h; for cell number change: measured here: cell count max response, cells fed with added oleic acid. The gist of the method: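 Laser-scanning cytometry quantifies lipid droplet accumulation (500–530 nm total intensity; droplet/cell object ratio) in oleic acid-fed (400 uM added) Drosophila S3 cells treated with a concentration series. 20 uM Triacsin C defined 100% inhibition.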
(In general: qHTS replaces the single test concentration by a dilution series.)

Where [1] appears, read: measured here: lipid fluorescence (Fed channel) AC50, cells fed with added oleic acid.
[2] abbreviates: measured here: cell number channel AC50, cells fed with added oleic acid.

Broadly, the AC50 is the midpoint of the concentration-response curve, whichever way the signal moves. Low values mean greater potency, high ones weaker potency. `COc1cccc(CNC(=O)CCC(=O)N2CC(C)Oc3ccccc32)c1OC` (configuration not stated): the cell number change was -19.3%. For the same molecule, the half-maximal activity concentration (AC50) under setting [1] is 32.6 µM [falling, partial curve, poor fit]. Regarding `CSCCC(=O)N1CCC(n2nccc2NC(=O)CCc2ccccc2)CC1`, the cell number change worked out at 39.1%. Further, the AC50 under setting [2] was 3.66 µM [rising, full curve]. With `O=c1cc(CSc2ccccc2)nc(-c2ccccc2)[nH]1`, the cell number change is -7.82%. In addition, the AC50 under setting [1] is 6.51 µM [falling, single point]. Consider `N=c1c2c3c(sc2ncn1Cc1ccco1)CCCCC3`, for which the cell number change was 11.2%. Moreover, under setting [2], the half-maximal activity concentration (AC50) was 0.651 µM [rising, partial curve, poor fit]. Take `CC(=O)c1ccc(S(=O)(=O)Nc2cccc(-c3cn4c(n3)SCC4)c2)cc1`: the cell number change was -10.3%. Also, the AC50 under setting [1] is 7.31 µM [falling, single point].

Take `COc1ccc(C(=O)NCC(c2ccco2)N2CCc3ccccc32)cc1OC` (configuration not stated): the cell number change amounted to 13.8%. The AC50 under setting [1] is 0.058 µM [rising, full curve, poor fit]. As for `O=C(C1CCN(S(=O)(=O)c2ccccc2F)CC1)N1CCc2ccccc21`, the cell number change turned out to be 50.7%. Also, under setting [2], the AC50 was 29.1 µM [rising, single point]. Further, the AC50 under setting [1] is 29.1 µM [rising, single point]. For `COc1ccc(NC(=O)C2CC2)cc1NS(=O)(=O)c1ccc(F)cc1`, the AC50 under setting [1] was 0.13 µM [rising, full curve, poor fit].

With `O=S(=O)(Cc1ncc(C(F)(F)F)cc1Cl)c1ccccc1`, the cell number change is -23.9%. In addition, under setting [2], the AC50 was 0.447 µM [falling, full curve, poor fit]. Regarding `CN(C)CCNC(=O)/C(=C/c1cccc([N+](=O)[O-])c1)NC(=O)c1ccccc1`, the cell number change worked out at 5.25%. The half-maximal activity concentration (AC50) under setting [1] is 3.66 µM [rising, single point]. On to `Cc1ccc(C)c(C(=O)CN2C(=O)NC3(CCCCCC3)C2=O)c1`, for which the cell number change is 31.7%. Further, the AC50 under setting [2] is 5.8 µM [rising, partial curve].

Consider `O=C(Nc1ccc(C2CCCCC2)cc1)C1CCCN(c2ncccn2)C1` (configuration not stated), for which the cell number change is -7.32%. Moreover, the AC50 under setting [2] is 6.51 µM [falling, single point]. For the molecule `COc1ccc(N(CC(=O)NCCC(C)C)C(=O)c2snc(C(=O)NC3CCCCC3)c2N)c(OC)c1`, the cell number change is 85.5%. The AC50 under setting [2] is 29.1 µM [rising, single point]. Also, under setting [1], the AC50 is 29.1 µM [rising, single point]. On to `O=C(Nc1ccccn1)c1nc(-c2ccccc2)n(-c2ccccc2)n1`, for which, under setting [1], the AC50 was 1.16 µM [rising, partial curve]. Turning to `OCC(O)[C@@H](O[C@H]1O[C@H](CO)[C@@H](O)[C@H](O)[C@H]1O)[C@H](O)[C@@H](O)CO` (some centres not stated), the cell number change is -25.4%. The AC50 under setting [1] was 18.4 µM [falling, partial curve, poor fit]. For the molecule `CCOc1ccc(C(=O)NCC(=O)N2CCCC2)cc1`, the cell number change is 18.8%. Turning to `Cc1ccc(C(=O)NC2CCCCCC2)o1`, the cell number change was -2.56%. Moreover, the AC50 under setting [1] was 2.31 µM [rising, single point].

`Cc1cc(=O)n2nc(N3CCC(C(=O)NCc4ccc(F)cc4)CC3)sc2n1`: the cell number change is -0.885%. Moreover, under setting [1], the AC50 is 4.61 µM [falling, single point].

On to `CCN(CC)CCNC(=O)c1ccc(NC(=O)c2cc(S(=O)(=O)N3CCCCC3)ccc2C)cc1`, for which the cell number change turned out to be 22.1%. On to `O=C(COC(=O)Cc1ccc(Br)cc1)NC1CCCCC1`, for which the cell number change amounted to 45.1%. In addition, the AC50 under setting [2] was 1.46 µM [rising, full curve]. Also, the AC50 under setting [1] is 6.51 µM [rising, single point]. Consider `Cc1cc(NC(=O)c2ccc(NC(=O)C3CCCO3)cc2)ccc1Br` (configuration not stated), for which the concentration at half-maximal activity (AC50) under setting [2] was 6.51 µM [rising, single point]. As to `CC(C)NC(=O)CC(=O)N/N=C/c1ccc(F)cc1`, the cell number change was determined as 23.6%. The AC50 under setting [1] is 18.4 µM [rising, single point].

Consider `CCCOC(=O)c1ccc(NC(=O)C(CC)CC)cc1`, for which the cell number change was -11.5%. In addition, under setting [1], the AC50 is 6.51 µM [falling, single point].

As for `Cc1ccc(C)c(NC(=O)CN(C)C(=O)CSC(C)C(=O)Nc2cc(C)on2)c1` (configuration not stated), the cell number change turned out to be 10.9%. For `CC(C)N(Cc1ccccc1)S(=O)(=O)c1ccc(F)cc1`, the cell number change was -33.2%. Besides, the AC50 under setting [2] was 20.6 µM [falling, single point]. The AC50 under setting [1] was 29.1 µM [falling, single point].

In the case of `CC(C)CC(=O)N1CCN(S(=O)(=O)c2ccc(Cl)cc2)CC1`, the cell number change was -3.45%. The AC50 under setting [1] is 0.00517 µM [falling, full curve, poor fit]. Turning to `O=C(CSc1ncnc2c1nnn2-c1ccc(F)cc1)NCC1CCCO1` (configuration not stated), the cell number change was -10.6%. For the same molecule, under setting [1], the AC50 was 0.103 µM [falling, full curve, poor fit].

In the case of `CC(C)(C)NC(=O)NC(=O)CSc1ncccn1`, the cell number change is -3.84%. For the same molecule, the AC50 under setting [2] was 0.411 µM [falling, single point]. Besides, the AC50 under setting [1] was 0.58 µM [falling, single point].

Consider `CCN1CCN(C(=O)CCc2nc3ccccc3c(=O)[nH]2)CC1`, for which the cell number change was -22%. Consider `CCN(CC(=O)NCc1ccc(Cl)cc1)C(=O)c1ccc(S(=O)(=O)NCc2ccco2)cc1`, for which the cell number change is -35.5%. Under setting [2], the AC50 was 29.1 µM [falling, single point]. Regarding `Cc1ccc(CN2CCN(/N=C/c3ccc(C(=O)O)cc3)CC2)c(C)c1`, the cell number change was -8.92%. For the same molecule, the concentration at half-maximal activity (AC50) under setting [1] was 20.6 µM [falling, single point]. With `CCOc1ccc(NC(=O)[C@@H](NC(=O)OCc2ccccc2)[C@@H](C)CC)cc1`, the cell number change was -11.8%.

Turning to `CCc1nc2cc3sc(CC)nc3cc2s1`, the cell number change was 0.209%. Besides, under setting [2], the AC50 is 6.51 µM [falling, single point]. Also, under setting [1], the concentration at half-maximal activity (AC50) was 6.51 µM [falling, single point]. For the molecule `COc1ccc(C(C(=O)NC2CCCC2)N(C(=O)c2snc(-c3ccc(F)cc3)c2N)c2cccc(F)c2)cc1` (configuration not stated), the cell number change is -115%. Besides, the concentration at half-maximal activity (AC50) under setting [2] was 7.31 µM [falling, partial curve]. Also, the AC50 under setting [1] was 7.31 µM [falling, partial curve]. For `O=C(CSCc1ccc(Cl)cc1)NCc1ccc2c(c1)OCO2`, the cell number change came out at 14.8%. Under setting [2], the AC50 is 6.51 µM [rising, single point].

Regarding `Cc1ccc(-c2cc(-c3ccc(F)cc3)c(C#N)c(N)n2)o1`, the cell number change came to 0.658%. Under setting [1], the half-maximal activity concentration (AC50) is 0.731 µM [rising, full curve, poor fit]. For `COc1ccc(CNS(=O)(=O)c2ccc(-c3cnc(C4CC4)o3)cc2)cc1`, the cell number change is -13.9%. For the same molecule, the AC50 under setting [1] is 0.58 µM [rising, single point]. Turning to `CN1C(=O)c2ccccc2N(C)C1c1cccc(O)c1` (configuration not stated), the cell number change stood at 12.4%. The AC50 under setting [1] was 29.1 µM [rising, single point]. Take `Cc1ccc(S(=O)(=O)N2CCOCC2)cc1NC(=O)Cn1cc(C(F)(F)F)cc(Cl)c1=O`: the cell number change was -32.6%. Further, the concentration at half-maximal activity (AC50) under setting [2] was 16.4 µM [falling, partial curve].

In the case of `Cc1cc(C)c(S(=O)(=O)c2ccccc2)c(N2CCOCC2)n1`, the cell number change was -30.4%. Consider `CCOC(=O)CCSc1nnc(-c2cccnc2)n1-c1ccccc1OC`, for which the cell number change is 12.6%. Take `Cc1ccnc(N2CCCC(C(=O)Nc3cc(F)ccc3C)C2)n1` (configuration not stated): the cell number change came to 19.6%. Further, the AC50 under setting [1] was 0.058 µM [rising, full curve, poor fit].

`Cc1ccsc1C(=O)OCC(=O)c1cc2ccccc2o1`: the cell number change is -0.395%. In addition, under setting [1], the AC50 was 16.4 µM [falling, single point]. As to `COc1ccc(OC)c(/C=N/Nc2nncn2/N=C/c2cc(OC)ccc2OC)c1`, the cell number change was -26.9%. Under setting [2], the AC50 is 0.92 µM [falling, full curve, poor fit]. Besides, the AC50 under setting [1] was 6.51 µM [falling, partial curve]. On to `COc1ccc(-c2c(-c3ccccc3OC)oc3ccccc23)cc1F`, for which the cell number change was -40.5%. Under setting [2], the AC50 was 1.84 µM [falling, partial curve, poor fit].

As for `CCCc1ccc(OC(=O)c2ccc(O)cc2Cl)cc1`, the cell number change is -47%. Besides, the AC50 under setting [2] was 18.4 µM [falling, single point]. For the same molecule, the AC50 under setting [1] is 20.6 µM [falling, single point]. As for `COc1ccccc1NC(=O)CCC(=O)N(Cc1ccc(OC)c(OC)c1)c1nccs1`, the cell number change was -31.7%. Also, under setting [2], the AC50 was 13 µM [falling, partial curve]. The half-maximal activity concentration (AC50) under setting [1] was 9.2 µM [falling, partial curve]. Consider `N#CCOC(=O)[C@H](Cc1c[nH]c2ccccc12)NS(=O)(=O)c1ccc(Cl)cc1`, for which the cell number change came to 19.6%. On to `O=C(COc1ccc(C(=O)c2ccccc2)cc1)NCC(=O)Nc1ccccc1Br`, for which the cell number change is 37.5%. Further, the AC50 under setting [2] is 10.3 µM [rising, partial curve]. Also, the AC50 under setting [1] is 18.4 µM [rising, partial curve]. Turning to `NC(=O)NC(=O)COC(=O)c1ccc(OC(F)(F)F)cc1`, the cell number change amounted to 6.05%. The half-maximal activity concentration (AC50) under setting [2] was 6.51 µM [falling, single point]. On to `CCN(C(=O)COC(=O)c1cc(Cl)ccc1OC)c1c(N)n(Cc2ccccc2)c(=O)[nH]c1=O`, for which the cell number change stood at 14.8%. Further, the AC50 under setting [2] is 0.82 µM [falling, single point].

Consider `O=C(COc1ccc2c3c(c(=O)oc2c1)CCC3)N1CCN(c2ccc(F)cc2)CC1`, for which the cell number change came to 8.36%. Also, the AC50 under setting [1] was 5.17 µM [falling, full curve, poor fit]. `CN1C(=O)/C(=C2\SC(=S)N(C(CCC(=O)O)C(=O)O)C2=O)c2ccccc21` (configuration not stated): the cell number change was -17.4%. Under setting [1], the AC50 is 7.31 µM [falling, partial curve]. Regarding `Cn1cc(Br)c(C(=O)NN2C(=O)C3C4C=CC(C5CC45)C3C2=O)n1` (configuration not stated), the cell number change was -8.23%. Also, under setting [1], the AC50 is 3.66 µM [falling, full curve, poor fit]. With `Cc1ccc(NC(=O)CN2CCC(C(N)=O)CC2)cc1[N+](=O)[O-]`, the cell number change was -19.9%. Also, under setting [1], the AC50 is 6.51 µM [falling, single point]. As for `CCc1nc2ccccc2c(NC(=O)CN2CC(C)CC(C)C2)c1C` (configuration not stated), the AC50 under setting [1] is 29.1 µM [falling, single point].

`O=C(CSc1ccc(-c2ccccn2)nn1)c1ccc(F)cc1`: the cell number change came to 12.1%. For the same molecule, the concentration at half-maximal activity (AC50) under setting [1] was 0.184 µM [rising, full curve, poor fit]. As to `N=c1oc2ccc(Br)cc2cc1C(=O)NCc1ccccc1`, the cell number change is 9.7%. In addition, the AC50 under setting [1] is 0.651 µM [rising, single point].

As to `Cc1cccc(CC2CC(=O)N(CCc3ccc4c(c3)OCO4)C2=O)c1` (configuration not stated), the cell number change amounted to 32.1%. Besides, under setting [2], the concentration at half-maximal activity (AC50) was 13 µM [rising, partial curve, poor fit].
